Assay results: paper PMC5024327
No constants are given. Whether binding was seen depends on the method and setting. For some assays here: Binding seen in cells or lysates may run through a third protein. Some entries that bind do so weakly or less than the wild type. For some assays here: Sequences can lack the tags named with a protein.

By UniProt entry, the sequences of proteins in these tests, tags left out.
UniProt Q96A65: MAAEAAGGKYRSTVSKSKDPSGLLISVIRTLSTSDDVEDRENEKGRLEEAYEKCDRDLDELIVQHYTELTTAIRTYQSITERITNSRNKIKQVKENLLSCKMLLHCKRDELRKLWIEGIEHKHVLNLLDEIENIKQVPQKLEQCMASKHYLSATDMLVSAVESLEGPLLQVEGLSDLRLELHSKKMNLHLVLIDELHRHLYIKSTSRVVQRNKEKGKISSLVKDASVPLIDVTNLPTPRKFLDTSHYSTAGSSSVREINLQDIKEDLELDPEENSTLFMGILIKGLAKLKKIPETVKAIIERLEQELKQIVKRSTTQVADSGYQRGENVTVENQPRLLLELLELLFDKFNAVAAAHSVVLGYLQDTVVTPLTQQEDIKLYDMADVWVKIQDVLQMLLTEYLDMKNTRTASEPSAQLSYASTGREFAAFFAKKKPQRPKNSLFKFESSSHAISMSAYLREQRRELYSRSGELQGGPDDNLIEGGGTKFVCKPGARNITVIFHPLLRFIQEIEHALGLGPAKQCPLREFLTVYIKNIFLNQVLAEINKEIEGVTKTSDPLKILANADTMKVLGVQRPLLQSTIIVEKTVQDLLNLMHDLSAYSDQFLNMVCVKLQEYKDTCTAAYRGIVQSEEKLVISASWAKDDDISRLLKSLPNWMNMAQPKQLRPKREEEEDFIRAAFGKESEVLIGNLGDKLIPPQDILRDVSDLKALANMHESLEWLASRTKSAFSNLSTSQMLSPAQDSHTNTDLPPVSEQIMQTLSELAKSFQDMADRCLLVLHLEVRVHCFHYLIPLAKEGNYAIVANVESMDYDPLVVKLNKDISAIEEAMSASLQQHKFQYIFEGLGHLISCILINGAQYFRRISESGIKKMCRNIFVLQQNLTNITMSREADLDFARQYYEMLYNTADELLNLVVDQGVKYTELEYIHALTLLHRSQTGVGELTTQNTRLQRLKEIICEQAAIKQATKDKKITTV

Experiments:
GST-RalA = biological target: T1, GST-RalA (UniProt P11233); experiment: pull-down; 10 μg GST-RalA on GSH beads, loaded with 200 μM GTPγS or 1 mM GDP (or no nucleotide), incubated with HEK293A lysates at 4 °C for 2 hours; Western blot with anti-GFP and anti-Sec8; only the target purified
T1 sequence: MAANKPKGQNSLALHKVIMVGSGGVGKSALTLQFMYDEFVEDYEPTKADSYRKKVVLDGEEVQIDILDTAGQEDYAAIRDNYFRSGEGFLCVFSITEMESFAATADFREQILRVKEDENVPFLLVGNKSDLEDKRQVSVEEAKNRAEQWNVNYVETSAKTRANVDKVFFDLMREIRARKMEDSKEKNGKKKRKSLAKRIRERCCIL

[1] = biological target: T2, RalA, purified, produced in E. coli (UniProt P11233); experiment: in vitro binding assays (kind not told); purified M-Sec and RalA, both produced in E. coli; no further detail; both purified
T2 sequence: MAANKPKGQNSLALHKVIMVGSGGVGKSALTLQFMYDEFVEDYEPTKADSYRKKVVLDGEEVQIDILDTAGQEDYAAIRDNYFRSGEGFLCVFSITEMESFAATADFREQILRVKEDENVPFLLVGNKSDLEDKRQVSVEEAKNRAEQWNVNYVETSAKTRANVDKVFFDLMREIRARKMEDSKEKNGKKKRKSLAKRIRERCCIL

Molecule: Sec8 (from UniProt Q96A65 1-974)
- binding (GST-RalA): binds

B1: M-Sec, purified, produced in E. coli (protein, UniProt Q61333 94-691)
chain: LSDLEVQPKPRPELDGPLPTVEELKEALEHGRLEVAWQVLALERQLEAAAAAGGMSNEELVWRQSKVEALYVLLCDQVLGVLRRPLEAAPERLSQALAVVSQEELEDRRASGGPLAAALEATRPRRWLQRWRGVVAEVAAERLDAQPATAPEGRSEAESRFLHMGRTMKEDLEVVVERLKPLFPDEFNVVRTYAESYHYHFASHLCALAQFELCERDTYLLLLWVQNLYPNDILNSPKLAQELQGVGLGSLLPPKQIRLLEAMFLSNEVTSVKQLMARALELESQRWTQDVAPQSLDGHCHSELAIDILQIISQGQTKAENITSDVGMQIKQLLLVELAALLRSYQRAFDEFLEKSKLLRNYRVNIMANINNCLFFWTSVEQKWQISHDSLNRLLEPLKDLKAHGFDTLLQSLFLDLKPLFKKFTQTRWANPVETLEEIITTVSSSLPEFSELQDCFREELMETVHLHLVKEYIIRLCKRRLVLKTAEQQQQLARHILANADAIQGFCTENGSTATWLHRALPMIAEIIRLQDSSAIKIEVATYATWYPDFSKGHLNAILAIKGNLPSSEVRSIRNILDINTGVQEPPRPLFSLIKVT
- binding [1]: no binding
